Binding data for one substance are collected here from publication PMC12811265.

By UniProt entry, the sequences of proteins in these tests, tags left out.
UniProt P45974: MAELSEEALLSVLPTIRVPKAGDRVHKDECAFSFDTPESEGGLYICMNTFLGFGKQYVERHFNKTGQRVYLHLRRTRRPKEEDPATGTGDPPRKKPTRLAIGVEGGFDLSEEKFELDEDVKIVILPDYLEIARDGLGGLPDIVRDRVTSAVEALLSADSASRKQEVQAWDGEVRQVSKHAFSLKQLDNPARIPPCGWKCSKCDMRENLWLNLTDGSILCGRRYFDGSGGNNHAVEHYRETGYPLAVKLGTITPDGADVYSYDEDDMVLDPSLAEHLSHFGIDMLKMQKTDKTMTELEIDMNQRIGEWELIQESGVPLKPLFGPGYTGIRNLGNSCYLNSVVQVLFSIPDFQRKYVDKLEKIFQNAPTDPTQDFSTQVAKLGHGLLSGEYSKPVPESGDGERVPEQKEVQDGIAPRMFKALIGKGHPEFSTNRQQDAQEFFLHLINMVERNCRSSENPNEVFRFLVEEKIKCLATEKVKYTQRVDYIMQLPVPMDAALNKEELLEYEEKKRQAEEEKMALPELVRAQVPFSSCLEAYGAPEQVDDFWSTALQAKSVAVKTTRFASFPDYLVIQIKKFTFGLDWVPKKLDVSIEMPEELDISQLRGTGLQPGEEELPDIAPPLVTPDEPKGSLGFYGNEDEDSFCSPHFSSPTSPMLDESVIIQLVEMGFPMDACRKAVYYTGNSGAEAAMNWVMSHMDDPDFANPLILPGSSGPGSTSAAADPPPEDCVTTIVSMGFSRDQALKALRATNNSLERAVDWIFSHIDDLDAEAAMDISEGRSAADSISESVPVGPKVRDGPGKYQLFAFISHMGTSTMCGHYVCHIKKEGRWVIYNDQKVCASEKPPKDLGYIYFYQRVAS

In this test the target is T1, methyltransferase-like 14 (human (endogenous in RA-FLSs)) (UniProt Q9HCE5).
T1 sequence: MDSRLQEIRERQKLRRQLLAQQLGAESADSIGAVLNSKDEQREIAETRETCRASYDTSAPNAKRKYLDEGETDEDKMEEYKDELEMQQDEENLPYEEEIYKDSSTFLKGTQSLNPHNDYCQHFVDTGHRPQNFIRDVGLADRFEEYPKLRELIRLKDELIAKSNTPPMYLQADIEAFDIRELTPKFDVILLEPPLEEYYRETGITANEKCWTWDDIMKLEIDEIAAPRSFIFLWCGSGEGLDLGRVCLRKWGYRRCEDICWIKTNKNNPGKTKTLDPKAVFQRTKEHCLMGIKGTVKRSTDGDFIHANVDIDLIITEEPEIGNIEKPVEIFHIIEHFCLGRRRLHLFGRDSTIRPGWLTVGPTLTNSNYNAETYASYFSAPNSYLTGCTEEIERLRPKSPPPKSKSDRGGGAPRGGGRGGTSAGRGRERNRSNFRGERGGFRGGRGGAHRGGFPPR
Put plainly: co-IP; RA-FLS lysates (IP lysis buffer with protease inhibitors) incubated overnight at 4 °C with anti-USP5 antibody, anti-METTL14 antibody or control IgG; protein A/G magnetic beads 2 h at 4 °C; bound proteins analysed by Western blot.

These are yes or no findings as the source states them, for the method shown. Binding seen in cells or lysates may run through a third protein. Some binding calls cover weakened binding; strength is not graded here.

Take “ubiquitin-specific protease 5 (from UniProt P45974 1-858) (enzyme)”: the binding entry is given as “binds”.
